In all, about 320,000 compounds went through this assay and about 2,100 (0.66%) were called active. Inconclusive means that the source gave no clear call. Such entries were picked first, then a sample of the others. The call rests on the fitted dose curve; in most records, active means well fitted inhibition curve with a large enough effect in the signal ratio, with a control signal flat (not every such curve was filed as active); inconclusive means small, poorly fitted or top-dose-only effect, or effect the other way, or a change in a side signal; inactive means flat fitted curve, though single readings scatter; the % refers to the signal ratio. Potencies beside an inconclusive call are fits to weak or partial responses and may not hold up.
Assay: qHTS Assay for Lipid Storage Modulators in Drosophila S3 Cells
Details: BODIPY lipid droplet fluorescence, 18-24 h, cells fed with added oleic acid; lipid storage change, negative = inhibition: at 46.1 µM (top of the series) unless noted
Procedure, shortened: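 Laser-scanning cytometry quantifies lipid droplet accumulation (500–530 nm total intensity; droplet/cell object ratio) in oleic acid-fed (400 uM added) Drosophila S3 cells treated with a concentration series. 20 uM Triacsin C defined 100% inhibition.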
On the % scale 0 is the no-effect control and ±100 the full control effect; potency means the concentration at half of the fitted maximal effect.

Structure (SMILES)	Potency	lipid storage change, negative = inhibition
CCCn1c(SCC(=O)NNC(=O)c2ccc(C)cc2)nnc1C(C)C	inconclusive: 20.6 µM [falling, single point]	–
CCN(CC)S(=O)(=O)c1ccc(Cl)c(C(=O)Nc2cc(C)nn2-c2ccccc2C(F)(F)F)c1	inconclusive: 16.4 µM [falling, single point]	–
Cc1ccc(CN2C(=O)c3ccccc3C2C(=O)NCC2CCCO2)cc1 (stereo not given)	–	inconclusive: 34.7%
CCCCn1c(N)c(N(CCOC)C(=O)c2cc3c(s2)CCC3)c(=O)[nH]c1=O	–	inconclusive
CNC(=O)c1[nH]cnc1C(=O)NCC(=O)OCc1ccccc1	–	inconclusive: 48%
CCn1cc(S(=O)(=O)N2CCN(Cc3cccc(Cl)c3)CC2)cn1	–	inconclusive: -20.3%
COc1ccc(CCn2c(C)nc3c(c(=O)c4ccccc4n3C)c2=O)cc1	–	inconclusive: -24.2%
Cc1ccc(S(=O)(=O)N2CCC(C(=O)NC3CC(C)(C)NC(C)(C)C3)CC2)cc1C	–	inconclusive: 4.78%
O=C(Nc1ccc2oc(-c3ccccc3F)nc2c1)c1ccccc1F	inconclusive: 7.31 µM [falling, partial curve, poor fit]	–
CN(C)C(=S)Nc1ccc(Cc2ccncc2)cc1	inconclusive: 0.259 µM [falling, full curve, poor fit]	–
O=C(/C=C/c1ccco1)NCc1ccc(F)cc1	–	inconclusive: -29.9%
NC(=S)n1[nH]c(-c2ccc([N+](=O)[O-])cc2)c(N=Nc2ccccc2[N+](=O)[O-])c1=O	–	inconclusive: -11.2%
COC(=O)c1ccc(S(N)(=O)=O)o1	inconclusive: 6.51 µM [falling, single point]	–
Cc1cc(S(=O)(=O)N2CCN(Cc3ccccc3)CC2)c(C)s1	–	inconclusive: 6.67%
O=c1[nH]c(N2CCc3ccccc32)nc2c1CCCC2	inconclusive: 29.1 µM [cytotoxic, single point]	–
O=C(CCC(=O)c1ccccc1)NCCc1c[nH]c2ccccc12	–	inactive: 3.97%
N#Cc1c(NC(=O)c2cc(C3CC3)on2)sc2c1CCC2	–	inconclusive: 51.7%
CCNc1ccc(C(=O)OCC(=O)NC(=O)NCC(C)C)cc1[N+](=O)[O-]	–	inconclusive: 2.05%
CCOC(=O)c1cc2n(c1N)-c1ccccc1C2=O	inconclusive: 4.61 µM [activator, single point]	–
CC/C(C)=N/Nc1nc2sc3c(c2c(=O)[nH]1)CC(C)(C)OC3	–	inconclusive: 23.1%
O=C(NCC(c1cccnc1)N1CCN(c2ccccc2F)CC1)C1CCCCC1 (stereo not given)	–	inconclusive: -5.51%
CCOc1ccccc1NC(C)C(=O)NC(=O)NC1CCCCC1 (stereo not given)	–	inconclusive: 4.56%
CC(=O)Nc1ccc(-c2csc(Nc3ccc(S(N)(=O)=O)cc3)n2)cc1	–	inconclusive: -28%

As a working copy, 2 of the compounds above.
Structure (SMILES)	Potency	lipid storage change, negative = inhibition
Cc1ccc(CN2C(=O)c3ccccc3C2C(=O)NCC2CCCO2)cc1 (stereo not given)	–	inconclusive: 34.7%
CCCCn1c(N)c(N(CCOC)C(=O)c2cc3c(s2)CCC3)c(=O)[nH]c1=O	–	inconclusive

(more compounds)

Structure (SMILES)	Potency	lipid storage change, negative = inhibition
O=C(c1ccc2c(c1)C(=O)N(CCCO)C2=O)c1ccc2c(c1)C(=O)N(CCCO)C2=O	–	inconclusive: -22.7%
CCCCN(C(=O)c1cccc(-n2cccc2)c1)c1c(N)n(CCC)c(=O)[nH]c1=O	inconclusive: 29.1 µM [activator, single point]	–
O=C(CCc1ccccc1)N1CCN(c2ccccc2F)CC1	–	inconclusive: 21% [at 9.22 µM]
COCCn1c(=O)[nH]c2cc(C(=O)Nc3cc(OC)c(OC)c(OC)c3)ccc2c1=O	–	inconclusive: -168%
O=C(Nc1ccc2c(c1)OCCO2)c1cccnc1	–	inconclusive: 7.45%
CN1C(=O)c2ccc(NC(=O)c3cccc4ccccc34)cc2C1=O	–	inconclusive: -20%
C/C(Cl)=C\CNC(C)c1ccccc1 (stereo not given)	–	inconclusive: 6.57%
Cn1c2ccccc2c2cc(C(=O)NNC(=O)CCl)sc21	–	inconclusive: -5.91%
CC(=O)N1CCN=C1SCc1ccc(F)cc1	inconclusive: 0.231 µM [falling, full curve, poor fit]	–
CCN1CCN(C(=O)Nc2ccc(Cc3ccc(NC(=O)N4CCN(CC)CC4)cc3)cc2)CC1	–	inconclusive: -1.42%
Cc1cc(C(=O)CN2CCCC2)c(C)n1-c1ccc(Cl)cc1	–	inconclusive: 3.85%
COc1ccc(NC(=O)c2cc(-c3ccccc3)on2)cc1	–	inconclusive: 1.6%
COc1ccc([C@H]2[C@H](C(C)=O)N3N=Cc4ccccc4C3C23C(=O)OC(C)(C)OC3=O)cc1 (stereo not given in full)	inconclusive: 6.51 µM [rising, partial curve, poor fit]	–
COc1ccc(C)cc1NC(=O)CN(C)S(=O)(=O)c1cccs1	–	inconclusive: 50.7%
O=C(CN1CCN(C(=O)c2ccco2)CC1)Nc1ccc(Cl)c(C(F)(F)F)c1	inconclusive: 18.4 µM [activator, partial curve, poor fit]	–
CCOC(=O)Cc1nnc(NC(=O)CCc2ccccc2)s1	–	inconclusive: -4.32%
CC1(C)CC(=O)C2=C(C1)NCN(CCCN1CCOCC1)C2	–	inconclusive: -10.6%
COc1ccc(OC)c(S(=O)(=O)N2CCCC(C(=O)NCc3ccncc3)C2)c1 (stereo not given)	inconclusive: 29.1 µM [activator, single point]	–
C/C(=N\NC(=O)Cc1cccn1C)c1ccco1	–	inconclusive: 24.9%
Cc1nc(SCC(=O)Nc2ccc3c(c2)OCO3)c(C#N)c2c1CCCC2	inconclusive: 1.84 µM [activator, full curve]	–
Cc1cc(C)c(S(=O)(=O)N2CCCCC2CCNC(=O)C(=O)NC2CC2)c(C)c1 (stereo not given)	–	inconclusive: -9.73%
COc1ccc(O)c(-c2cc(-c3ccc(F)cc3)n[nH]2)c1	inconclusive: 29.1 µM [activator, single point]	–

— PubChem BioAssay AID2685 (National Center for Advancing Translational Sciences (NCATS), 2010)
